From PubChem BioAssay AID248 (DTP/NCI, 2004) come the findings set out here.

In this test the test system is L1210 leukemia ip in BDF1 mice, survival T/C. The test is described as follows: NCI In Vivo Anticancer Drug Screen. Data for tumor model L1210 Leukemia (intraperitoneal) in B6D2F1 (BDF1) mice. The conditions noted are these: T/C endpoint: mean survival time, higher T/C = longer survival.

The list is a part of this screen's results and no random one: it is rich in T/C values a quarter to a half above the control, in often repeated tests (any T/C) and in doses without a T/C. Other doses and runs of a compound stand elsewhere. T/C gives the treated animals as a percentage of the vehicle group. Some entries give survivors of the animals treated and no T/C: the source holds a T/C of zero for them, seemingly a mark for toxic or unscored doses. Some survivor counts are full or nearly so, which does not show that the dose was tolerated: survival well below the control is almost never listed, so the zero probably covers shortened survival too. Survivors were counted at the toxicity check, usually on the fifth day, unless a day is given; later deaths do not show. Schedules are NCI's codes, taken here to give the interval after Q, in days (D) or hours (H), and the number of doses after X. Some schedule codes hold Z or #, which are not explained here. Where survival is the endpoint, this PubChem deposit counts one and a half times the control or more as active, and values a quarter to a half above the control carry no call in these data; other NCI protocols may use other cut-offs. Some T/C values carry the count of animals alive at the toxicity check (mostly the fifth day); without a count, all were alive then.

Regarding `CC(=O)OCC1OC(n2ccc(N)nc2=O)C(OC(C)=O)C1OC(C)=O` (configuration not stated), the T/C by setting is: (dose: 18.0 mg/kg/injection, schedule: Q01DX009 (ip), vehicle: carboxymethylcellulose (CMC)) 126 % of control; (dose: 18.0 mg/kg/injection, schedule: Q03HX008 (ip), vehicle: carboxymethylcellulose (CMC)) 138 % of control; (dose: 30.0 mg/kg/injection, schedule: Q01DX009 (ip), vehicle: carboxymethylcellulose (CMC)) 149 % of control; (dose: 30.0 mg/kg/injection, schedule: Q01DX011 (oral), vehicle: water) 133 % of control; (dose: 30.0 mg/kg/injection, schedule: Q03HX008 (ip), vehicle: carboxymethylcellulose (CMC)) 142 % of control; (dose: 45.0 mg/kg/injection, schedule: Q01DX011 (oral), vehicle: water) 132 % of control. The T/C is 135 % of control (dose: 50.0 mg/kg/injection, schedule: Q01DX015 (oral), vehicle: carboxymethylcellulose (CMC)); 145 % of control (dose: 65.0 mg/kg/injection, schedule: Q01DX011 (oral), vehicle: water); 135 % of control [8 of 10 alive] (dose: 75.0 mg/kg/injection, schedule: Q## X024 (oral), vehicle: water); 147 % of control (dose: 85.0 mg/kg/injection, schedule: Q01DX015 (ip), vehicle: saline); 129 % of control (dose: 125.0 mg/kg/injection, schedule: Q01DX015 (ip), vehicle: saline); 127 % of control (dose: 150.0 mg/kg/injection, schedule: Q01DX005 (oral), vehicle: water). Also, the T/C is, setting by setting: (dose: 150.0 mg/kg/injection, schedule: Q01DX009 (oral), vehicle: water) 146 % of control; (dose: 300.0 mg/kg/injection, schedule: Q01DX001 (sc), vehicle: water) 130 % of control; (dose: 300.0 mg/kg/injection, schedule: Q01DX005 (oral), vehicle: water) 130 % of control; (dose: 300.0 mg/kg/injection, schedule: Q## X003 (oral), vehicle: water) 140 % of control; (dose: 500.0 mg/kg/injection, schedule: Q01DX001 (ip), vehicle: saline) 134 % of control; (dose: 600.0 mg/kg/injection, schedule: Q01DX001 (ip), vehicle: water) 136 % of control. Also, the T/C (dose: 600.0 mg/kg/injection, schedule: Q01DX001 (sc), vehicle: water) was 137 % of control; the T/C (dose: 600.0 mg/kg/injection, schedule: Q01DX005 (oral), vehicle: water) was 148 % of control; the T/C (dose: 600.0 mg/kg/injection, schedule: Q## X008 (oral), vehicle: water) was 125 % of control; the T/C (dose: 660.0 mg/kg/injection, schedule: Q01DX001 (ip), vehicle: carboxymethylcellulose (CMC)) was 133 % of control; the T/C (dose: 1200.0 mg/kg/injection, schedule: Q01DX001 (ip), vehicle: water) was 145 % of control; the T/C (dose: 1200.0 mg/kg/injection, schedule: Q01DX001 (sc), vehicle: water) is 141 % of control. Moreover, the T/C by setting is: (dose: 1200.0 mg/kg/injection, schedule: Q01DX009 (oral), vehicle: water) 128 % of control [9 of 10 alive]; (dose: 1200.0 mg/kg/injection, schedule: Q## X006 (oral), vehicle: water) 131 % of control; (dose: 1200.0 mg/kg/injection, schedule: Q## X008 (oral), vehicle: water) 147 % of control; (dose: 1200.0 mg/kg/injection, schedule: Q## X024 (oral), vehicle: water) 131 % of control; (dose: 2400.0 mg/kg/injection, schedule: Q01DX001 (oral), vehicle: water) 140 % of control; (dose: 2400.0 mg/kg/injection, schedule: Q## X008 (oral), vehicle: water) 144 % of control. For the same compound, the T/C (dose: 2400.0 mg/kg/injection, schedule: Q## X024 (oral), vehicle: water) was 145 % of control. For the same compound, the survivor count by setting is: (dose: 18.0 mg/kg/injection, schedule: Q## X024 (oral), vehicle: water) 3 of 10; (dose: 37.0 mg/kg/injection, schedule: Q## X008 (oral), vehicle: water) 6 of 10; (dose: 75.0 mg/kg/injection, schedule: Q## X008 (oral), vehicle: water) 3 of 10; (dose: 150.0 mg/kg/injection, schedule: Q## X008 (oral), vehicle: water) 4 of 10; (dose: 300.0 mg/kg/injection, schedule: Q## X008 (oral), vehicle: water) 3 of 10; (dose: 300.0 mg/kg/injection, schedule: Q## X024 (oral), vehicle: water) 5 of 10. In addition, the survivor count by setting is: (dose: 400.0 mg/kg/injection, schedule: Q01DX009 (ip), vehicle: water) 10 of 10; (dose: 400.0 mg/kg/injection, schedule: Q01DX009 (sc), vehicle: water) 10 of 10; (dose: 500.0 mg/kg/injection, schedule: Q01DX015 (ip), vehicle: saline) 6 of 6; (dose: 3053.0 mg/kg/injection, schedule: Q01DX001 (ip), vehicle: carboxymethylcellulose (CMC)) 0 of 10; (dose: 3053.0 mg/kg/injection, schedule: Q04DX003 (ip), vehicle: carboxymethylcellulose (CMC)) 3 of 10.
`Cc1ccc(P(=O)(O)O)c([N+](=O)[O-])c1`: the survivor count (dose: 400.0 mg/kg/injection, schedule: Q01DX001 (ip), vehicle: saline) was 2 of 6.
Regarding `CN(N=Nc1ccc(C(N)=O)cc1)C1CCCCC1`, the survivor count (dose: 400.0 mg/kg/injection, schedule: Q01DX001 (ip), vehicle: other) is on record as 0 of 4.
Turning to `C[N+](C)(C)c1ncnc2[n-]cnc12`, for the setting “dose: 100.0 mg/kg/injection, schedule: Q01DX015 (ip), vehicle: saline”, the T/C was 125 % of control. For the same compound, the survivor count is reported as 3 of 6 (dose: 200.0 mg/kg/injection, schedule: Q01DX015 (ip), vehicle: saline) and 0 of 6 (dose: 400.0 mg/kg/injection, schedule: Q01DX015 (ip), vehicle: saline).
`CCC(=O)CC1CCCC(CC(=O)CC)N1C` (configuration not stated): the survivor count (dose: 75.0 mg/kg/injection, schedule: Q01DX001 (ip), vehicle: saline) is 3 of 6; the survivor count (dose: 150.0 mg/kg/injection, schedule: Q01DX001 (ip), vehicle: saline) was 0 of 6; the survivor count (dose: 300.0 mg/kg/injection, schedule: Q01DX001 (ip), vehicle: saline) was 0 of 6.
As for `Cc1c(C=NCCNCCN=Cc2[nH]c(=S)[nH]c(=O)c2C)[nH]c(=S)[nH]c1=O`, the T/C (dose: 100.0 mg/kg/injection, schedule: Q04DX003 (ip), vehicle: saline with Tween-80) is 125 % of control.
For the compound `C[N+](C)(C)CCC[N+]1(C)CC2CC=CCC2C1` (configuration not stated), the survivor count is 1 of 6 (dose: 222.0 mg/kg/injection, schedule: Q01DX Z (ip), vehicle: saline); 0 of 6 (dose: 333.0 mg/kg/injection, schedule: Q01DX Z (ip), vehicle: saline); 0 of 6 (dose: 500.0 mg/kg/injection, schedule: Q01DX Z (ip), vehicle: saline).
Turning to `CC(=O)CC(C)=O.CCCCC(C[C-]=O)N(CC)CC.[Pd+2]` (configuration not stated), the survivor count reads like this: (dose: 37.5 mg/kg/injection, schedule: Q04DX003 (ip), vehicle: distilled water + Tween-80) 0 of 6; (dose: 75.0 mg/kg/injection, schedule: Q04DX003 (ip), vehicle: distilled water + Tween-80) 1 of 6; (dose: 150.0 mg/kg/injection, schedule: Q04DX003 (ip), vehicle: distilled water + Tween-80) 1 of 6.
Regarding `CC[C@@]1(O)c2cc3n(c(=O)c2CO[C@H]1O)Cc1cc2ccccc2nc1-3`, the T/C (dose: 24.0 mg/kg/injection, schedule: Q01DX007 (ip), vehicle: other) is 139 % of control.
As to `CCCCCCCCCOc1ccc(C=Nc2ccc(CC)cc2)cc1`, the survivor count by setting is: (dose: 100.0 mg/kg/injection, schedule: Q01DX009 (ip), vehicle: Klucel (hydroxypropylcellulose) (HPC)) 6 of 6; (dose: 200.0 mg/kg/injection, schedule: Q01DX009 (ip), vehicle: Klucel (hydroxypropylcellulose) (HPC)) 6 of 6; (dose: 400.0 mg/kg/injection, schedule: Q01DX009 (ip), vehicle: Klucel (hydroxypropylcellulose) (HPC)) 5 of 6.
Turning to `CC(C)(O)CCC1=C(O)c2ccccc2C(=O)C1=O`, the survivor count (dose: 400.0 mg/kg/injection, schedule: Q04DX003 (ip), vehicle: Klucel (hydroxypropylcellulose) (HPC)) is 2 of 6.
